Reference: PubChem BioAssay AID1259259 (Sanger Institute, 2017)
The deposit covers 794 reagents; this is an unselected part. 9 of all reagents (1.1%) were called active. 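Calls rest on knock-down alone, not drug synergy; viability values seem capped at 1.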 Further read-outs or replicates are left out here. No sequences are given here. Not given: the amount of reagent, the time to read-out.

Aim: 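Synthetic lethal kinase partners of anchor drugs in colorectal cancer cells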 (primary screen)
System: SW1463 human colorectal cancer cells
Reagents: siRNA pool against human genes
Conditions: DMSO vehicle, or one anchor drug: BYL719 at 1 µM, cetuximab at 5 µg/ml, or trametinib at 10 nM
Read-out: 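Viability relative to control pool 2 (non-targeting) averaged over replicates, robust z-score for knock-down with no drug, and for each anchor drug the mean synergy score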
Scale: robust z-score, knock-down alone: higher = more viable cells after knock-down; viability, knock-down alone: higher = more viable cells
Units: viability, knock-down alone in fraction of control
Rule for the call: 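a robust z-score under -3 for knock-down with no drug marks the gene as essential, meaning viability loss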
Calls: active = essential: viability loss from knock-down alone; inactive = no change from knock-down alone

NRK → robust z-score, knock-down alone = -0.379; viability, knock-down alone = 0.903; call = inactive
MGA → robust z-score, knock-down alone = 1.13; viability, knock-down alone = 1; call = inactive
INSRR → robust z-score, knock-down alone = 0.852; viability, knock-down alone = 0.982; call = inactive
HIPK4 → robust z-score, knock-down alone = 1.13; viability, knock-down alone = 1; call = inactive
CAMK1D → robust z-score, knock-down alone = -0.982; viability, knock-down alone = 0.865; call = inactive
PRP4K → robust z-score, knock-down alone = -2.37; viability, knock-down alone = 0.775; call = inactive
SRPK2 → robust z-score, knock-down alone = 0.671; viability, knock-down alone = 0.971; call = inactive
WNK3 → robust z-score, knock-down alone = 0.208; viability, knock-down alone = 0.941; call = inactive
MAP2K7 → robust z-score, knock-down alone = -0.714; viability, knock-down alone = 0.882; call = inactive
TGFBR2 → robust z-score, knock-down alone = 0.52; viability, knock-down alone = 0.961; call = inactive
SHPK → robust z-score, knock-down alone = 1.13; viability, knock-down alone = 1; call = inactive
PI4K2B → robust z-score, knock-down alone = -1.45; viability, knock-down alone = 0.835; call = inactive
NME4 → robust z-score, knock-down alone = -0.0552; viability, knock-down alone = 0.924; call = inactive
CSNK1A1L → robust z-score, knock-down alone = 0.214; viability, knock-down alone = 0.941; call = inactive
DAPK1 → robust z-score, knock-down alone = -1.63; viability, knock-down alone = 0.823; call = inactive

Only “robust z-score, knock-down alone” (3 entries from above):
MGA	1.13
INSRR	0.852
HIPK4	1.13

Continued.
RPS6KA4 → robust z-score, knock-down alone = -0.0969; viability, knock-down alone = 0.921; call = inactive
MKNK1 → robust z-score, knock-down alone = 0.648; viability, knock-down alone = 0.969; call = inactive
MAGI3 → robust z-score, knock-down alone = 1.13; viability, knock-down alone = 1; call = inactive
CALM1 → robust z-score, knock-down alone = -0.225; viability, knock-down alone = 0.913; call = inactive
PRKAA1 → robust z-score, knock-down alone = 0.506; viability, knock-down alone = 0.96; call = inactive
CMPK1 → robust z-score, knock-down alone = 1.13; viability, knock-down alone = 1; call = inactive
ITSN1 → robust z-score, knock-down alone = 1.13; viability, knock-down alone = 1; call = inactive
EPHA4 → robust z-score, knock-down alone = 1.13; viability, knock-down alone = 1; call = inactive
STK17B → robust z-score, knock-down alone = -1.06; viability, knock-down alone = 0.86; call = inactive
UHMK1 → robust z-score, knock-down alone = -1.01; viability, knock-down alone = 0.863; call = inactive
